Assay results reported in patent US20210253716A1.
These are yes or no findings as the source states them, for the method shown. Some results given as binding are weak or reduced against the parent protein; the word gives no strength.

Amino acid sequences for entries named in this document (tags omitted). A change or cut given only in a name is not applied to a line headed by its entry.
UniProt Q04771: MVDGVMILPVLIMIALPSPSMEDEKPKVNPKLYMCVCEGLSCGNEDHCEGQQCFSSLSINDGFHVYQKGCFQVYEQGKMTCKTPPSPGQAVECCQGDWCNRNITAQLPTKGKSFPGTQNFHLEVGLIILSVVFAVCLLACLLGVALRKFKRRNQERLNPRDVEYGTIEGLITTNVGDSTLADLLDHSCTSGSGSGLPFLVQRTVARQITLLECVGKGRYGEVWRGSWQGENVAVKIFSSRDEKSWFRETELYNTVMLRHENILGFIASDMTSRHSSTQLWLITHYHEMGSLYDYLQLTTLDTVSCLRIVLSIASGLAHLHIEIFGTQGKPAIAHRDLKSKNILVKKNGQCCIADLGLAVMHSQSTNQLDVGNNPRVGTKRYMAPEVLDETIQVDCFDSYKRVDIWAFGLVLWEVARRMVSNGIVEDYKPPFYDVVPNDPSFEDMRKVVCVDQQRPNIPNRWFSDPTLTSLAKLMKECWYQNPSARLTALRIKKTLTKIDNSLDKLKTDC

B1: mAb27247 (antibody, human IgG4 S228P, kappa, V domains shown)
VH: EIQLVESGGDLVQPGGSLKLSCAASGFTFSDSAMHWVRQASGKGLEWVGRIRNKANTYATSYAASVKGRFTVSTDDSKTTAYLQMRYLKIEDTAIYYCTSDQFDYWGQGTLVTVSS
VL: DVVMTQSPLSLSATLGQPASISCRSSQSLVYSDGITYLTWFQQRPGQSPTRLIYQVSNRDSGVPDRFNGSGSGTDFTLNISRVEAEDVGFYYCMEGTHWPWTFGQGTKVELKR
B2: mAb29266 (antibody, human IgG4 S228P, kappa, V domains shown)
VH: QVQLVESGGGVVQPGRSLRLSCEVSGFTFSNYGMHWVRQAPGKGLEWVAVVSYDGSNKYYTDSVKGRFTISRDNSKNTLSLQMNSLRAEDTAVYYCAKDRGITGTSGGVFDIWGQGTMVTVSS
VL: AIRMTQSPSSFSATTGDRVTITCRASQGISSHLAWYQQKPGKAPKFLIYVASTLQSGVPSRFSGSGSGTDFTLTISSLQSEDFATYYCQQYYSYPPTFGQGTKVEIKR
B3: mAb22115 (antibody, human IgG4 S228P, kappa, V domains shown)
VH: EVQLVESGGGLVQPGGSLRLSCAASGFTSSRYWMSWVRQAPGKGLEWLANINQDGSEKYYLESLRGRFTISRDNAKNSLYLQMNNLRAEDTAVYYCARDEEGYWGQGTLVTVSS
VL: DVVMTQSLLSLSVTLGQPASISCRSSQSLVYSDGDTYLSWFQQRPGQSPRRLIYKVSHRDSGVPDRFRGSGSGTDFTLKISRVEAEDVGIYYCMQGTHWPPTFGQGTKVEIKR

biological target: full length human ACVR1 (R206H) on HEK293/BRE-luc/hACVR1-R206H-clone H2 cells (human) (UniProt Q04771); assay: flow cytometry, HEK293/hACVR1-R206H cells

Row | Binder | binding
1 | B1 | binds
2 | B2 | binds
3 | B3 | binds
